Laboratory results: the supplement of paper PMC10689618
Structures can show the parent of a compound that is named as a salt. The list shows a part of the results. Repeats are few or missing, and single values can be far off.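 Primary human fetal astrocytes engulfed labelled rat cortical synaptosomes, measured as a red/green ratio corrected for calcein live-cell signal and scaled to the plate median. Toxicity meant calcein falling over 30%; decreased phagocytosis meant below 70% of median above 5 µM.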

Tested on: Human fetal astrocytes
Assay: synaptosome phagocytosis (pHrodo/calcein intensity ratio) relative to plate median of data wells; higher = more phagocytosis
Conditions: 22.22 µM; 24 h

Row | SMILES | synaptosome phagocytosis
1 | O=[N+]([O-])c1cccc2c(Br)[nH]nc12 [3-Bromo-7-nitroindazole] | 121%
2 | CCC(C)N(C)C(=O)c1cc2ccccc2c(-c2ccccc2Cl)n1 (centres undefined) | 105%
3 | OC(CN1CCN(c2cccc(Cl)c2)CC1)C(c1ccccc1)c1ccccc1 (centres undefined) | 111%
4 | CSC(=N)N [S-Methylisothiourea hemisulfate] | 92.4%
5 | Cc1ccccc1N1C(=O)c2cc(S(N)(=O)=O)c(Cl)cc2NC1C (centres undefined) [Metolazone] | 114%
6 | CC(C)(C)NCC(O)c1ccc(O)c(CO)c1 (centres undefined) [Albuterol hemisulfate] | 110%
7 | C[C@]12CC[C@@H]3c4ccc(O)cc4CC[C@H]3[C@@H]1CCC2=O [Estrone] | 104%
8 | Nc1nc2[nH]c(=O)cnc2c(=O)[nH]1 [Isoxanthopterin] | 124%
9 | CC[N+](CC)(CC)CC [Tetraethylammonium chloride] | 129%
10 | O=C(CCCN1CC=C(n2c(=O)[nH]c3ccccc32)CC1)c1ccc(F)cc1 [Droperidol] | 82.3%
11 | CCn1c(=O)[nH]c2cc(Cl)c(Cl)cc21 | 106%
12 | C=C[C@H]1CN2CC[C@H]1C[C@H]2[C@H](O)c1ccnc2ccc(OC)cc12 [Quinine sulfate] | 119%
13 | CC(C)C(=O)Nc1ccc([N+](=O)[O-])c(C(F)(F)F)c1 [Flutamide] | 107%
14 | NCCNC(=O)c1ccc(Cl)cc1 [Ro 16-6491 hydrochloride] | 109%
15 | Cn1c(=O)c2[nH]c(-c3ccc(S(=O)(=O)O)cc3)nc2n(C)c1=O [8-(p-Sulfophenyl)theophylline] | 112%
16 | CN(C(=O)CCCOc1ccc2[nH]c(=O)ccc2c1)C1CCCCC1 [Cilostamide] | 88%
17 | Oc1ncnc2[nH]ncc12 [Allopurinol] | 139%
18 | N=C(N)c1ccccc1 [Benzamidine hydrochloride] | 98%
19 | COc1ccc(CCN(C)CCCC(C#N)(c2cc(OC)c(OC)c(OC)c2)C(C)C)cc1OC (racemic) [(±)-Methoxyverapamil hydrochloride] | 84.1%
20 | O=[N+]([O-])c1cc2nc(O)c(O)nc2cc1[N+](=O)[O-] | 112%

Row | SMILES | synaptosome phagocytosis
21 | Nc1ncnc2c1nc(Br)n2C1OC2COP(=O)(O)O[C@@H]2C1O (some centres undefined) [8-Bromo-cAMP sodium] | 108%
22 | CCOC(=O)C1=C(C)NC(C)=C(C(=O)OC)C1c1cccc([N+](=O)[O-])c1 (centres undefined) [Nitrendipine] | 104%
23 | CC1(NC(=O)CBr)CCC(C(C)(C)NCC(O)COc2cccc3[nH]ccc23)CC1 (racemic) [(±)-Pindobind] | 68.8%
24 | COc1ccc2c(c1)c(CC(=O)N1CCOCC1)c(C)n2C(=O)c1ccc(Cl)cc1 [Indomethacin morpholinylamide] | 102%
25 | CO/N=C(\C(=O)N[C@@H]1C(=O)N2C(C(=O)O)=C(COC(C)=O)CS[C@H]12)c1csc(N)n1 [Cefotaxime sodium] | 95.9%
26 | COc1cc(NS(C)(=O)=O)ccc1Nc1c2ccccc2nc2ccccc12 [Amsacrine hydrochloride] | 82.4%
27 | OC(CN1CCC(Cc2ccc(F)cc2)CC1)c1ccc(Cl)cc1 (centres undefined) [Eliprodil] | 98.5%
28 | CC(C)NC[C@@H](O)COc1ccc(CC(N)=O)cc1 [R(+)-Atenolol] | 100%
29 | CNC(=O)c1cc2c(cn1)[nH]c1ccccc12 [N-Methyl-beta-carboline-3-carboxamide] | 105%
30 | CN1CCC[C@@H]1c1cccnc1.Cc1ccc(C(=O)O[C@H](C(=O)O)[C@@H](OC(=O)c2ccc(C)cc2)C(=O)O)cc1 [(+)-Nicotine (+)-di-p-toluoyl tartrate] | 111%
31 | O=C(O)c1cc(=O)c2c(Cl)cc(Cl)cc2[nH]1 [5,7-Dichlorokynurenic acid] | 94.5%
32 | CNC(=O)[C@H]1O[C@@H](n2cnc3c(NCc4cccc(I)c4)ncnc32)[C@H](O)[C@@H]1O | 100%
33 | Cn1ccc2cc3c(cc21)CCN3C(=O)Nc1cccnc1 | 102%
34 | CC[C@H](NC(=O)c1c(C)c(-c2ccccc2)nc2ccccc12)c1ccccc1 | 110%
35 | Oc1cc2c(c(Cl)c1O)CCNCC2c1ccccc1 (racemic) [(±)-6-Chloro-PB hydrobromide] | 99.7%
36 | CCOC(=O)c1cnc2c(cnn2CC)c1NN=C(C)C [Etazolate hydrochloride] | 98.2%
37 | CC(C)=CCC/C(C)=C/CC/C(C)=C/CSc1ccccc1C(=O)O [Farnesylthiosalicylic acid] | 106%
38 | CC(=O)NCCc1c[nH]c2ccc(O)cc12 [N-Acetyl-5-hydroxytryptamine] | 132%
39 | O=c1[nH]c2cc(Cl)ccc2c(O)c1-c1cccc(Oc2ccccc2)c1 | 116%

Ordered by length of the SMILES (rising): 3 of the compounds above
Row | SMILES | synaptosome phagocytosis
27 | OC(CN1CCC(Cc2ccc(F)cc2)CC1)c1ccc(Cl)cc1 (centres undefined) [Eliprodil] | 98.5%
2 | CCC(C)N(C)C(=O)c1cc2ccccc2c(-c2ccccc2Cl)n1 (centres undefined) | 105%
5 | Cc1ccccc1N1C(=O)c2cc(S(N)(=O)=O)c(Cl)cc2NC1C (centres undefined) [Metolazone] | 114%
